# Measurements: patent publication US20250041574A1 (TARIS Biomedical LLC, priority 2022, published 2025)
# Key:
# [1] = test system: ERK1/2 phosphorylation in orthotopic bladder UM-UC-1 tumors; experiment: ERK1/2 phosphorylation in orthotopic UM-UC-1 tumors (capillary immunoblotting); format: in vivo, nude rats; conditions: IVES 6 mg/kg
# [2] = rats dosed orally 20 mg/kg, 2 and 7 hours
# [3] = bladder
smiles,measurement,setting,value
"COc1cc(OC)cc(N(CCNC(C)C)c2ccc3ncc(-c4cnn(C)c4)nc3c2)c1 [erdafitinib, N-(3,5-dimethoxyphenyl)-N′-(1-methylethyl)-N-[3-(1-methyl-1H-pyrazol-4-yl)quinoxalin-6-yl]ethane-1,2-diamine]",pERK/ERK (relative to vehicle group),[1]; 7 hours post dose,0.60
same,pERK/ERK (relative to vehicle group),[1]; 48 hours post dose,0.71
same,pERK/ERK (relative to 48-hour vehicle group),[1]; 120 hours post dose,0.98
same,fold lower exposure in s.c. tumors compared with orthotopic tumors,[2],Roughly 2 fold
same,fold concentration in urothelial layer compared to underlying tissue layers,[3],> 10 fold
